From ChEMBL document CHEMBL3988442, “University of Dundee, Small-Polar-MMV Screening Library” (2021).

Each number is a percent effect as filed. The controls that fix the scale are not given in the record; negative values are as filed. The compounds are a random part of those screened. Two or more numbers in one place are separate tests of the same structure; such repeats can differ widely.

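Viability assay of Plasmodium falciparum sporozoites; the read-out is not stated. The concentration is filed as 10 mM, unlikely as a test dose, so the dose is not known. Higher reads as lower viability (inferred: compounds with an IC50 in retests scored well above the rest). Strong results were mostly tested again. Of about 34,000 compounds tested this way, about 280 (0.84%) reached 50% or more in at least one test.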

structure	Percent Effect
Cc1nc(CN2CCCC2c2c(C)nn(C)c2Cl)oc1C (centres unmarked)	1.526
CC(C)[C@@H](C)NC(=O)N1CCn2nc(C(=O)NCCN(C)C)cc2C1	-24.3 and -10.4
Cc1cc(NC(=O)CN2CCCC2c2noc(C(C)C)n2)no1 (centres unmarked)	4.075
O=C(O)C(F)(F)F.O=C(O)C(F)(F)F.[H][C@@]12CCN(C)C[C@]1(C(=O)NCCc1ccccn1)CCO2	20.4
Cc1ccccc1N1CCCN(C(=O)CCCS(N)(=O)=O)CC1	0.1181
O=C(O)C(F)(F)F.O=C(O)C(F)(F)F.O=C(O)C(F)(F)F.[H][C@@]12CN(Cc3ccco3)C[C@]1([H])[C@@H](OC)CCN2Cc1ccccn1	-2.632
O=C(O)C(F)(F)F.O=C(c1cccnc1)N1CCCC2(COCCN(c3ccccc3)C2)C1 (centres unmarked)	6.318
[H][C@@]12CN(CCOC)C[C@]1([H])[C@H](OC)CCN2C(=O)c1cccc(OC)c1	-8.292
CSc1nccn1-c1cccc(C(=O)NCCN2CCS(=O)(=O)CC2)c1	10.67
CC(C)c1nc(CN2CCOC(Cn3cncn3)C2)cs1 (centres unmarked)	-38.48 and 10.81 and -24.84
O=C(O)C(F)(F)F.[H][C@@]12CCN(c3cccnc3)C[C@]1([H])CN(C(=O)c1ccn(C)n1)C2	3.152
O=C(O)C(F)(F)F.c1ccc(C[C@H]2CN(Cc3nccs3)CC[C@@H]2OCC2CC2)cc1	14.48
CN(C(=O)Cc1ccccc1F)C1CCN(c2ccccn2)CC1	2.958
CCO[C@H]1CN(C)C[C@@H]1NC(=O)c1cc(C)nc2ccc(C)cc12	3.538
CN1CCN(C(=O)c2nc3c(o2)CN(C(=O)c2cccnc2)C3)CC1.O=C(O)C(F)(F)F.O=C(O)C(F)(F)F	-11.34
[H][C@]12CCN[C@@]1([H])CN(C(=O)CC1CC1)C2	-3.168
Fc1ccc(C2(CNC3=NCCCN3)CCC2)cc1.I	-6.316
CCn1ncc(S(=O)(=O)N[C@@H]2CC[C@@H](n3ccnc3)[C@@H]2O)c1C	6.216
COc1ccccc1CN1CC(O)CN(C(=O)OCC(C)C)CC1=O (centres unmarked)	6.029
CCSc1cncc(N2CCC(C(=O)Nc3ccccn3)CC2)n1	-0.9126
Cl.NC1CCc2nc(-c3cccnc3)nc(Nc3ccc(F)cc3)c2C1 (centres unmarked)	17.71
CCC(CC(=O)Nc1ccc2c(c1)CC(=O)N2)c1ccccc1 (centres unmarked)	-9.455
O=C(O)c1nnn(-c2cccc(C(F)(F)F)c2)c1-c1ccncc1	8.265
Cc1occc1CNC(=O)N(CCCO)C1CCc2ccccc21 (centres unmarked)	-26.47
FC(F)(F)Cn1ccnc1CNCC1CCCN1c1cccnn1 (centres unmarked)	-2.463
CC(Cc1ccco1)NC(=O)CSc1nnc[nH]1 (centres unmarked)	-0.7786
CN(CC1COc2ccccc2O1)C(=O)NCCCn1cccn1 (centres unmarked)	-1.357
Cc1ncc(-c2ccnc(N3CCN(C)CC3)n2)c(-c2cccnc2)n1	-6.863
Cc1ccc(C(=O)NCCS(C)(=O)=O)c(=O)[nH]1	-3.608
CS(=O)(=O)N1CCc2c(cccc2NC(=O)CC(F)(F)F)C1	-5.975
[H][C@@]12COC[C@]1([H])[C@@H](OCC1CCN(C)CC1)CN2Cc1ccc(C)o1	16.7
CCc1cc(N(C)CCCO)n2nccc2n1	-14.92
COc1ncccc1CN1Cc2nccn2CC(Cn2cccn2)C1 (centres unmarked)	0.1751
COC(=O)c1cc(NS(=O)(=O)c2cn(C)cn2)c(F)cc1F	-10.92
CN1CCN(c2ccc(NS(=O)(=O)c3ccc(Br)s3)cc2C(=O)O)CC1	4.745
CS(=O)(=O)NCc1ncn2c1CN(Cc1cccs1)CCC2.O=C(O)C(F)(F)F.O=C(O)C(F)(F)F	-6.778
Cn1cc(CN2CCC[C@]3(C[C@H](Oc4ncccc4F)CO3)C2)cn1.O=C(O)C(F)(F)F.O=C(O)C(F)(F)F	11.9
CCC1CN(C(=O)c2cccc(O)c2)CCC(=O)N1Cc1ccccc1 (centres unmarked)	-19.1 and -14.75
Cc1cc(C(N)=O)ccc1NC(=O)c1nc(N2CCCC2)ncc1Cl	-5.637
CCN1CCN(CC(O)c2ccc(F)cc2)CC1 (centres unmarked)	4.48
O=C(O)C(F)(F)F.O=C(c1cscn1)N1CCC2(CN(Cc3nccs3)C2)C1	-6.163
CC(C)CN1C(=O)C2(CCCC2)NC1c1cccnc1 (centres unmarked)	15.7
CCC(C)NC(=O)NCCCn1nc2ccccn2c1=O (centres unmarked)	5.12
O=C(O)C(F)(F)F.[H][C@]12CCC[C@@]1(COc1ccccn1)CN(C(=O)CN(C)C)C2	0.783
Clc1cc(Cl)cc(CN2CCC(NCc3cc[nH]n3)CC2)c1	-4.994
NC(=O)C1Cn2ccnc2C2(CCN(C(=O)c3ccncc3)CC2)O1 (centres unmarked)	-0.4052
COc1ccc(NC(=O)NCc2cccc(N(C)C)n2)c(Cl)c1	-5.66
c1ccc(Cn2cccn2)c(CNCC2CNc3ccnn3C2)c1 (centres unmarked)	-2.617
CC(C)c1cc(NC(=O)CN2CCn3c(nnc3C3CC3)C2)on1	0.3641
O=C(O)C(F)(F)F.[H][C@@]12CCN(S(=O)(=O)c3ccc(F)cc3)C[C@]1([H])[C@@H](CN(C)C)OC2	-7.729
Cc1nc(CNC(=O)NCCC2=CCCC2)oc1C	-11.48
Cn1cccc1C(=O)NCc1ccnc(C2CCCOC2)n1 (centres unmarked)	10.65
CC(=O)N1CCC(n2ccc(-c3cnc(NCC(C)C)nc3)n2)CC1	12.45
COCC1CN(C(=O)Nc2cc(Cl)ccc2F)CCO1 (centres unmarked)	-10.74
O=C(NCc1cccnc1)N1CCc2ncnc(NC3CC3)c2CC1.O=C(O)C(F)(F)F	-1.216
Cc1cnn(CC2CN(CC(=O)Nc3ccnn3C(C)C)CCO2)c1 (centres unmarked)	2.692
CCN1CCN(C)C2(CCN(Cc3ccc(C)o3)CC2)C1=O.O=C(O)C(F)(F)F.O=C(O)C(F)(F)F	-0.8554
Cc1nnc(NC(=O)NCCCN2CCC(C(N)=O)CC2)s1	0.1791
CC1CCN(Cc2cnc(S(=O)(=O)CC3CC3)n2CC2CCCO2)CC1 (centres unmarked)	6.047
Fc1ccc(-c2n[nH]cc2-c2ccnc(NCCN3CCCC3)n2)cc1	-12.25
Cc1cnn(CC2CCCN2Cc2cc(C)no2)c1 (centres unmarked)	6.791
Cc1nc(C)n(C2CCCN(C(=O)c3ncoc3C(C)C)C2)n1 (centres unmarked)	4.25
CN(C)[C@@H]1CN(C(=O)c2cc3cccc(F)c3[nH]2)C[C@H]1O	6.468
[H][C@]12C[C@@H](CN3CCCC3)N(C)[C@@]1([H])CCN(C(=O)c1cnccn1)C2	-3.682
Cc1nn(C)c(Cl)c1C1CCCN1C(=O)c1cnc[nH]1 (centres unmarked)	6.191
CC1Cc2ccccc2N1C(=O)Cn1nc(-c2cccs2)ccc1=O (centres unmarked)	1.499
CC(C)(C)C(=O)CN1Cc2ccccc2NCCC1=O	-0.09569
O=C(O)C(F)(F)F.O=C(O)C(F)(F)F.c1cncc(-c2nnn3c2COCC(CNCC2CCOCC2)C3)c1 (centres unmarked)	-17.24
COCC(=O)N1Cc2nc3c(C)c(-c4cccs4)nn3c(O)c2C1	1.268
Cc1cc(C)n(C2CCCN(C(=O)c3ccc4c(c3)COC4)C2)n1 (centres unmarked)	-10.63
COCCN1CCC(CN(C)c2nc3c(s2)c(C)nn3C)CC1	-4.053
CN1C[C@@H](C(=O)NC(C)(C)C)[C@@]2(COc3ccc(F)cc3C2=O)C1	5.446
CN(C)C(=O)N1CCC2(C1)CN(c1cccnc1)C(=O)CN2C (centres unmarked)	16.86
COc1ccc(C)c(NC(=O)NCc2cccc(N(C)C)n2)c1	-0.333
O=C(CCN1CCN(c2ccc3nncn3n2)CC1)NC1CCCC1	-10.33
Cc1ccc(CN2Cc3ccccc3O[C@]3(CC[C@H](CO)CC3)C2)s1.Cl	10.79
CSC1(CNC(=O)N(C)Cc2ccc(C)s2)CCOCC1	-13.36 and -5.366
Cc1cc(-c2ccc(C(=O)O)cc2)nc(C2CCCN(C(C)C)C2)n1 (centres unmarked)	-5.418
COc1ccc(-c2cc(CN)nc3ccnn23)cc1.Cl	-7.028
O=C1CC2(CCCCN2C(=O)c2cccs2)CN1CC1CC1 (centres unmarked)	-3.61
Cn1cc(-c2ncc3c(c2C(=O)O)CCN(CC2CCOC2)C3)cn1 (centres unmarked)	8.27
Cc1ccccc1S(=O)(=O)N1CCC(c2[nH]ncc2C)C1 (centres unmarked)	-7.186
[H][C@@]12CN(C(=O)c3cccc(C)n3)C[C@]1([H])[C@@H]2CC(=O)N1CCCC1	1.711
CC(NC(=O)NCc1ccoc1)c1ccc2c(c1)CC(=O)N2 (centres unmarked)	0.7842
CCOc1cccc2c1OCC(=O)N(c1ccc3c(c1)OCO3)C2	-0.3864 and -5.184
O=C(NCC(O)c1ccc(F)cc1F)c1ccccc1 (centres unmarked)	-9.592
CN1CCCC2(C1)CN(C(=O)C1CCCCC1)CCO2 (centres unmarked)	7.186

Repeated from the top, 11 entries:

* Cc1nc(CN2CCCC2c2c(C)nn(C)c2Cl)oc1C (centres unmarked) | 1.526%
* CC(C)[C@@H](C)NC(=O)N1CCn2nc(C(=O)NCCN(C)C)cc2C1 | -24.3% and -10.4%
* Cc1cc(NC(=O)CN2CCCC2c2noc(C(C)C)n2)no1 (centres unmarked) | 4.075%
* O=C(O)C(F)(F)F.O=C(O)C(F)(F)F.[H][C@@]12CCN(C)C[C@]1(C(=O)NCCc1ccccn1)CCO2 | 20.4%
* Cc1ccccc1N1CCCN(C(=O)CCCS(N)(=O)=O)CC1 | 0.1181%
* O=C(O)C(F)(F)F.O=C(O)C(F)(F)F.O=C(O)C(F)(F)F.[H][C@@]12CN(Cc3ccco3)C[C@]1([H])[C@@H](OC)CCN2Cc1ccccn1 | -2.632%
* O=C(O)C(F)(F)F.O=C(c1cccnc1)N1CCCC2(COCCN(c3ccccc3)C2)C1 (centres unmarked) | 6.318%
* [H][C@@]12CN(CCOC)C[C@]1([H])[C@H](OC)CCN2C(=O)c1cccc(OC)c1 | -8.292%
* CSc1nccn1-c1cccc(C(=O)NCCN2CCS(=O)(=O)CC2)c1 | 10.67%
* CC(C)c1nc(CN2CCOC(Cn3cncn3)C2)cs1 (centres unmarked) | -38.48% and 10.81% and -24.84%
* O=C(O)C(F)(F)F.[H][C@@]12CCN(c3cccnc3)C[C@]1([H])CN(C(=O)c1ccn(C)n1)C2 | 3.152%